Non-standard residues stand in square brackets, D forms with d. Dmt = Cc1cc(O)cc(C)c1C[C@H](N)C(=O)O
Assay: general procedure: solution-phase peptide synthesis; TBTU
[1] = late stage modification step, HPLC, trifluoroacetate salt

H-[dR][Dmt]KF-NH2
crude purity (method not given) [1]: 97%
final purity (method not given) [1]: 99%
crude HPLC purity (late stage modification step, TFA salt): 96.6%

Boc-D-Arg-Dmt(Boc)-Lys(Boc)-Phe-NH2
final HPLC purity (coupling step, trifluoroacetate salt): 98.2%
